Measured values: US20060122107A1 (Monash University, priority 2002, published 2006)
At least one peptide structure holds a part that was inferred or is arguable (an end, a ring closure or a residue).

Experiments:
Format in all cases: cell-based, mouse
CTL clone HSV2.3 = assay: T-hybrid CTL recognition assay (IL-2 bioassay), control clone HSV2.3
Excerpt: The SIINFEKL/K^b-restricted CD8^+ CTL clones B3.1, GA4.2 (Nikolic-Zugic, J., and Carbone F. R. (1990). The effect of mutations in the MHC Class I peptide binding groove on the cytotoxic T lymphocyte recognition of the Kb restricted ovalbumin determinant. Eur. J. Immunol. 20:2431), 149.13.13, 149.42.12 (Clark S. R., Barnden M., Kurts C., Carbone F. R., Miller J. F., Heath J. R. Characterization of the ovalbumin-specific TCR transgenic line OT-I: MHC elements for positive and negative selection. Immunol Cell Biol. April 2000;78(2): 110-7), and the herpes simplex viral specific clone HSV2.3 (Wallace, M. E., Keating, R., Heath, W R., Carbone, F. R. 1999. […]
CTLL-2 cells were grown to ˜5×10^5 cell per ml then washed 3 times in media containing no exogenous IL-2. […] Once dry, scintillation fluid (Packard Biosciences, Melbourne) was added, then counted on a TopCount scintillation counter (Packard Biosciences, Melbourne).
CTL clones (expressing different TCR Vβ/Vα segments) restricted by the H2-K^b molecule, and specific to the SIINFEKL peptide were tested for their ability to recognise the various βC3-amino acid substituted analogues (Table X). […] CTTL-2 proliferation is then measured by 3H-Thymydine incorporation and counted on a scintillation counter.

CTL clone GA4.2 = assay: Antagonism assay, clone GA4.2; settings: co-administered with 1 nM SIINFEKL
CTL clone B3.1 = assay: T-hybrid CTL recognition assay (IL-2 bioassay), clone B3.1; settings: for recognition by B3.1: 1 μM peptide pulsed on I-3 cells, compared to the parental peptide

CC[C@H](C)[C@H](NC(=O)[C@@H](NC(=O)[C@@H](N)CO)[C@@H](C)CC)C(=O)N[C@@H](CC(N)=O)C(=O)N[C@@H](Cc1ccccc1)C(=O)N[C@@H](CCC(=O)O)C(=O)N[C@@H](CCCCN)C(=O)N[C@@H](CC(C)C)C(=O)O [Peptide 1, SIINFEKL, reference compound]
recognition by control clone HSV2.3 (CTL clone HSV2.3): did not recognise

CCC(C)C(CC(=O)N[C@H](C(=O)N[C@@H](CC(N)=O)C(=O)N[C@@H](Cc1ccccc1)C(=O)N[C@@H](CCC(=O)O)C(=O)N[C@@H](CCCCN)C(=O)N[C@@H](CC(C)C)C(=O)O)[C@@H](C)CC)NC(=O)[C@@H](N)CO (stereo partly shown) [Peptide 3]
effect on parental SIINFEKL response, GA4.2 (CTL clone GA4.2; listed as P2): super agonist effect
effect on parental SIINFEKL response, GA4.2 (CTL clone GA4.2; listed as β-Ile at P2): increased the relative IL-2 secretion
IL-2 secretion of B3.1 in CTL recognition assay (CTL clone B3.1; peptide alone): decreased IL-2 secretion

CCC(C)C(CC(=O)N[C@@H](CC(N)=O)C(=O)N[C@@H](Cc1ccccc1)C(=O)N[C@@H](CCC(=O)O)C(=O)N[C@@H](CCCCN)C(=O)N[C@@H](CC(C)C)C(=O)O)NC(=O)[C@@H](NC(=O)[C@@H](N)CO)[C@@H](C)CC (stereo partly shown) [Peptide 4]
recognition by B3.1 (CTL clone B3.1): approximately 50%

CC[C@H](C)[C@H](NC(=O)[C@@H](NC(=O)[C@@H](N)CO)[C@@H](C)CC)C(=O)NC(CC(N)=O)CC(=O)N[C@@H](Cc1ccccc1)C(=O)N[C@@H](CCC(=O)O)C(=O)N[C@@H](CCCCN)C(=O)N[C@@H](CC(C)C)C(=O)O (stereo partly shown) [Peptide 5]
recognition by B3.1 (CTL clone B3.1): approximately 50%

CC[C@H](C)[C@H](NC(=O)[C@@H](NC(=O)[C@@H](N)CO)[C@@H](C)CC)C(=O)N[C@@H](CC(N)=O)C(=O)NC(CC(=O)N[C@@H](CCC(=O)O)C(=O)N[C@@H](CCCCN)C(=O)N[C@@H](CC(C)C)C(=O)O)Cc1ccccc1 (stereo partly shown) [Peptide 6, SIINβFEKL]
recognition by B3.1 (CTL clone B3.1): approximately 50%
